In patent EP4831182A1, “COMPOUND HAVING DUAL DEGRADATION ACTIVITY AGAINST IRAK4 AND FLT3 PROTEINS, PHARMACEUTICAL COMPOSITION COMPRISING SAME, AND USE THEREOF” (dated 2026):

Test system: MOLM-13 tumor cells
Experiment: Inhibition of tumor cell proliferation assay (CellCounting-Lite)
Details: for IC50: read-out: MOLM-13 IC50, MOLM-13 cells, 48 hours; for inhibitory activity against the proliferation of MOLM-13 tumor cells (in words): summary statement
Procedure: Human acute myeloid leukemia cell line MOLM-13 (ATCC) was used and cultured in a sterile incubator at 37-38 °C, pH 7.2-7.4, under 5% CO2. MOLM-13 cells (1×10^4 per well) were seeded in 96-well plates, treated with compounds at various concentrations, and incubated further.
After 48 hours of cell culture, an equal volume of CellCounting-Lite reagent (DD1101-01, Vazyme) was added, mixed by shaking for 5 minutes, and left at room temperature for 10 minutes. Cell proliferation was measured using a VICTOR Nivo multimode plate reader.

Row | Structure (SMILES) | IC50 [nM] | inhibitory activity against the proliferation of MOLM-13 tumor cells (in words)
1 | COC1CCN(c2nc3nc(N4CCN(CC5CN(c6ccc7c(c6)C(=O)N(C6CCC(=O)NC6=O)C7=O)C5)CC4)oc3cc2C(=O)Nc2cccc(-c3cnn(C)c3)n2)CC1 (stereo not shown) | 157 | possess inhibitory activity
2 | COC1CCN(c2nc3nc(N4CCN(C5CCN(C(=O)c6ccc7c(c6)CN(C6CCC(=O)NC6=O)C7=O)CC5)CC4)oc3cc2C(=O)Nc2cccc(-c3cnn(C)c3)n2)CC1 (stereo not shown) | 87 | possess inhibitory activity
3 | COC1CCN(c2nc3nc(N4CCN(CCN5CCN(c6ccc7c(c6)C(=O)N(C6CCC(=O)NC6=O)C7=O)CC5)CC4)oc3cc2C(=O)Nc2cccc(-c3cnn(C)c3)n2)CC1 (stereo not shown) | 129 | possess inhibitory activity
4 | COC1CCN(c2nc3nc(N4CCN(C(=O)CN5CCN(c6ccc7c(c6)C(=O)N(C6CCC(=O)NC6=O)C7=O)CC5)CC4)oc3cc2C(=O)Nc2cccc(-c3cnn(C)c3)n2)CC1 (stereo not shown) | 87 | possess inhibitory activity
5 | COC1CCN(c2nc3nc(N4CCN(CC5CCN(c6ccc7c(c6)C(=O)N(C6CCC(=O)NC6=O)C7=O)CC5)CC4)oc3cc2C(=O)Nc2cccc(-c3cnn(C)c3)n2)CC1 (stereo not shown) | 516 | 

These reach a lower IC50. Values come first.

Row | IC50 [nM] | Structure (SMILES) | inhibitory activity against the proliferation of MOLM-13 tumor cells (in words)
6 | 41 | COC1CCN(c2nc3nc(N4CCN(C(=O)C5CCN(c6ccc7c(c6)C(=O)N(C6CCC(=O)NC6=O)C7=O)CC5)CC4)oc3cc2C(=O)Nc2cccc(-c3cnn(C)c3)n2)CC1 (stereo not shown) | possess inhibitory activity
7 | 54 | COC1CCN(c2nc3nc(N4CCN(CCN5CC6(C5)CN(c5ccc7c(c5)C(=O)N(C5CCC(=O)NC5=O)C7=O)C6)CC4)oc3cc2C(=O)Nc2cccc(-c3cnn(C)c3)n2)CC1 (stereo not shown) | possess inhibitory activity

Structures were worked out from names or drawings and are uncertain.
